This is one part of the list.

Sequences of proteins named here, by UniProt entry; tags and fusion partners are left off. A change or cut given only in a name is not applied to a line headed by its entry.
UniProt O75643, whole entry, looked up: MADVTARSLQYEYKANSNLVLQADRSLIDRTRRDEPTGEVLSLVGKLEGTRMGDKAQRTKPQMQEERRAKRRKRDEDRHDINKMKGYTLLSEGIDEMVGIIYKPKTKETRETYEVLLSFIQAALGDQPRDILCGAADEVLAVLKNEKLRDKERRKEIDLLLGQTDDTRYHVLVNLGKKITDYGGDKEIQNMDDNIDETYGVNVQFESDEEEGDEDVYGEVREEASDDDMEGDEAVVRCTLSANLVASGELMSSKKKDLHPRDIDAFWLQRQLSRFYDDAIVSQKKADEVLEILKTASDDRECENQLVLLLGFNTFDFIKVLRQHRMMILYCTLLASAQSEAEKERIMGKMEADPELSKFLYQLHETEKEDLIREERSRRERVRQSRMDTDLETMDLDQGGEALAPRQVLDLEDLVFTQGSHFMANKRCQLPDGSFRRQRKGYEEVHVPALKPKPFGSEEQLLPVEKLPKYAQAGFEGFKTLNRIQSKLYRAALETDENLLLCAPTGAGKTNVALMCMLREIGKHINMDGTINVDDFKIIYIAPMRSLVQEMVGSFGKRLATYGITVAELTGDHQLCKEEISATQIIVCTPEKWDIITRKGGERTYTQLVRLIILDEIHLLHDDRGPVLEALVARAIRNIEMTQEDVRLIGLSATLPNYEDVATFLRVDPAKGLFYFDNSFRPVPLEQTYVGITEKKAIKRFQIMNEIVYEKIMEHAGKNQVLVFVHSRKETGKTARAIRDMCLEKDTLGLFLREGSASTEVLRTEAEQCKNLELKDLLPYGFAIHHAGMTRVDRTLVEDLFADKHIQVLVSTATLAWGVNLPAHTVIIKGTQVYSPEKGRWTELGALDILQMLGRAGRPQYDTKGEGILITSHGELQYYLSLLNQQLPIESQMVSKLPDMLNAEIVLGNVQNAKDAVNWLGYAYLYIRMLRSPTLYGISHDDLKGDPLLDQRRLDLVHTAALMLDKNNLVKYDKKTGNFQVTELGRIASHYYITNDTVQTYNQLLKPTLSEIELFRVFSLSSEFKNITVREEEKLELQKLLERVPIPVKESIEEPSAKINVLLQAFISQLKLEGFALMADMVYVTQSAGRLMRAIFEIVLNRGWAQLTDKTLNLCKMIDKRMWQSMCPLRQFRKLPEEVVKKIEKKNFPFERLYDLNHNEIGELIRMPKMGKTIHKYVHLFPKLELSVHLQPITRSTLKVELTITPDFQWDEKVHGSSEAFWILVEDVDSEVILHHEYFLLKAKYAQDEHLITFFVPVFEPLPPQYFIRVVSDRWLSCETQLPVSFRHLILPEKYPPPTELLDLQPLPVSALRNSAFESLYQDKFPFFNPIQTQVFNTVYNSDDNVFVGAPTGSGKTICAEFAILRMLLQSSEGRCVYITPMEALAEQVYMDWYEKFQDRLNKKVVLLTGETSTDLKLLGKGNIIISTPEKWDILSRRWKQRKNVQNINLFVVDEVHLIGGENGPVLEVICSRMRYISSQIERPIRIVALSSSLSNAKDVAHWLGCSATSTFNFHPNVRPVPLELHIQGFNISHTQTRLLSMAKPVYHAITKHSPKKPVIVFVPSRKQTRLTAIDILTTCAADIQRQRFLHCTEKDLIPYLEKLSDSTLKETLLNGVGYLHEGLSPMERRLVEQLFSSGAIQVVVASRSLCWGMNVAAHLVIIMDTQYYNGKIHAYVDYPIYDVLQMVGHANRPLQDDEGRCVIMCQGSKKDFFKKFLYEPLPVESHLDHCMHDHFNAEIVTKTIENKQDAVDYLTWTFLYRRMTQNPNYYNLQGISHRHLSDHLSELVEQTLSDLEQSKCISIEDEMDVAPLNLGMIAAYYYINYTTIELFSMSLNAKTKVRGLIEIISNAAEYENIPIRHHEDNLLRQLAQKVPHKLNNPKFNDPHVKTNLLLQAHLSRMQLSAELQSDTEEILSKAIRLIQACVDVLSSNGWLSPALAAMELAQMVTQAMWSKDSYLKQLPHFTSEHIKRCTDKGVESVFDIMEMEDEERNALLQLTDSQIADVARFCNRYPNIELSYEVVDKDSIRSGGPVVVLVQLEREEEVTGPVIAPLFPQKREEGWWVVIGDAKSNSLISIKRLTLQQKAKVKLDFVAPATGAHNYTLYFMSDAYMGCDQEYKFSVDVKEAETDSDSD
UniProt Q9UQE7: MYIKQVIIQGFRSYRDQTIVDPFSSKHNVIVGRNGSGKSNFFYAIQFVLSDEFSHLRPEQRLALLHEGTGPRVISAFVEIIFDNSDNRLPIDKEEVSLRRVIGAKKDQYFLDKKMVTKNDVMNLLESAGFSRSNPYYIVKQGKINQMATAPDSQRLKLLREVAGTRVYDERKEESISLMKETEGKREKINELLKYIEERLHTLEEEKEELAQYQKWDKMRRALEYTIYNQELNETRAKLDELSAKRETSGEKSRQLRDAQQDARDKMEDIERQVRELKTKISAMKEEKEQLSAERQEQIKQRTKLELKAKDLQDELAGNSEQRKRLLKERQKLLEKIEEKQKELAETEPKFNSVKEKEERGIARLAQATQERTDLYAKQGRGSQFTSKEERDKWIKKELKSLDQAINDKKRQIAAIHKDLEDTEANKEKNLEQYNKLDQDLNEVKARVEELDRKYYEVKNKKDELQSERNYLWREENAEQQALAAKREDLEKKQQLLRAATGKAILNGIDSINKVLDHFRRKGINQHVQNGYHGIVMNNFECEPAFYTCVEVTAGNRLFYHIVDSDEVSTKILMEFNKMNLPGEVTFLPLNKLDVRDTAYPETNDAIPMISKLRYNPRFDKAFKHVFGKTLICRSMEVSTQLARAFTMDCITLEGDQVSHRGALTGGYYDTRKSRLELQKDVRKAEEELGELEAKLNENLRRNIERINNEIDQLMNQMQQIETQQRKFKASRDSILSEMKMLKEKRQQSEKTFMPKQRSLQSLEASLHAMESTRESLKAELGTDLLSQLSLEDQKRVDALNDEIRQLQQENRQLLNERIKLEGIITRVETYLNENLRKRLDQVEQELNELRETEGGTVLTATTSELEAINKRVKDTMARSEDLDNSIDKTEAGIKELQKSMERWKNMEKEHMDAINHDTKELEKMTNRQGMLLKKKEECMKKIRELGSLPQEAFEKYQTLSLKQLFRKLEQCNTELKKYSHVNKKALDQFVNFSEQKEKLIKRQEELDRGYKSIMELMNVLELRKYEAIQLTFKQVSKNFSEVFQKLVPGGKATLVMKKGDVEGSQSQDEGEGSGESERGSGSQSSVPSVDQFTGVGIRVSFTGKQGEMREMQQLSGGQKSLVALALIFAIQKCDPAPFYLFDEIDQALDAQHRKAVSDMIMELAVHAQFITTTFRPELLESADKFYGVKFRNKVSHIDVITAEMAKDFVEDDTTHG
UniProt Q9H4L7: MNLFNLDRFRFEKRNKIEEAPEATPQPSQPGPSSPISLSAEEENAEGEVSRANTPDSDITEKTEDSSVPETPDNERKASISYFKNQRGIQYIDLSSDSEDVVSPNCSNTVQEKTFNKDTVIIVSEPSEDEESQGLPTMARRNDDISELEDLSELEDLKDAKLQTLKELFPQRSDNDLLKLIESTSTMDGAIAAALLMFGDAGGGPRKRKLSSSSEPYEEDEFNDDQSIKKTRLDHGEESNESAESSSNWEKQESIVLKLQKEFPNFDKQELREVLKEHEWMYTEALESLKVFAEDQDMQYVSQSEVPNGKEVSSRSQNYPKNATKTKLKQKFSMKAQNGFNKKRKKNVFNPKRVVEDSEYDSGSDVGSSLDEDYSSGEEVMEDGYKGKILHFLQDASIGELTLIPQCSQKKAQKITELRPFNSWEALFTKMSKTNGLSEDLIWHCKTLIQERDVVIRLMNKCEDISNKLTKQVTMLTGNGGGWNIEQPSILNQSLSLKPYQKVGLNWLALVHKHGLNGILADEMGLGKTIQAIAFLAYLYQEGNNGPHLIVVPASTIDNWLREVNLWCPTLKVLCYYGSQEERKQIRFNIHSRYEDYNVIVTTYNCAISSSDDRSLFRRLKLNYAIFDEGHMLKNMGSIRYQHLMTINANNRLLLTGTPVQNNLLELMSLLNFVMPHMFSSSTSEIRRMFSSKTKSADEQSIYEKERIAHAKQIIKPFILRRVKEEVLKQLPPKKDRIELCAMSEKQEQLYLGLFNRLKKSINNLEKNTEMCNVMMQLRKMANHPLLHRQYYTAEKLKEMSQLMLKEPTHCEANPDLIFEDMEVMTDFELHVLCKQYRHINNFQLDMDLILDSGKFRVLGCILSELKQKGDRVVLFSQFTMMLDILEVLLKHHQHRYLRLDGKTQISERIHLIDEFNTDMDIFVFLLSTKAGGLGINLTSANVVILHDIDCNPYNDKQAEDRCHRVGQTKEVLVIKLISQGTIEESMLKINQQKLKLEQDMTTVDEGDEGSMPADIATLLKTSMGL
UniProt Q8IW52: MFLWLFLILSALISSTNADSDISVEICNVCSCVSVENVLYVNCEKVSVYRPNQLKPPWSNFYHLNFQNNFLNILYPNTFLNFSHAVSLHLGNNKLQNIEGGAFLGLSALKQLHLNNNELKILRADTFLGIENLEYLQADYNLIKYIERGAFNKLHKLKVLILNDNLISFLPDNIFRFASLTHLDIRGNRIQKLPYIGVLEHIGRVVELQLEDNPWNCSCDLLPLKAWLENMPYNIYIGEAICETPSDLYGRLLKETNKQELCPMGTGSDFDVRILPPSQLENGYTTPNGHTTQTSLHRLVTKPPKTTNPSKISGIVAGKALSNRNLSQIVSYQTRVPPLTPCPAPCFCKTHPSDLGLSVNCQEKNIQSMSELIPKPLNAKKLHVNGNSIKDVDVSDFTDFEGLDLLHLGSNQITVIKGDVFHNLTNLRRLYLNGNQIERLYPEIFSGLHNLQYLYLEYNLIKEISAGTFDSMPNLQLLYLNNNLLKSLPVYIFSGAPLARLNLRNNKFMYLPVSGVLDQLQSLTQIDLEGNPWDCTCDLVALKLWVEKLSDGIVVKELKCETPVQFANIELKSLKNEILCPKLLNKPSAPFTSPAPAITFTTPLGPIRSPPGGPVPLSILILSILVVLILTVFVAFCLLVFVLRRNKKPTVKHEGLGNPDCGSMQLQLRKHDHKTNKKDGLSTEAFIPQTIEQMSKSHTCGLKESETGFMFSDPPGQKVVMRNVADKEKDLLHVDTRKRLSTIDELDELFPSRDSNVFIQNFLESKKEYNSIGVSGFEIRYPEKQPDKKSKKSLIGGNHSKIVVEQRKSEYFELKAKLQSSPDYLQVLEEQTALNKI
UniProt Q16637, whole entry, looked up: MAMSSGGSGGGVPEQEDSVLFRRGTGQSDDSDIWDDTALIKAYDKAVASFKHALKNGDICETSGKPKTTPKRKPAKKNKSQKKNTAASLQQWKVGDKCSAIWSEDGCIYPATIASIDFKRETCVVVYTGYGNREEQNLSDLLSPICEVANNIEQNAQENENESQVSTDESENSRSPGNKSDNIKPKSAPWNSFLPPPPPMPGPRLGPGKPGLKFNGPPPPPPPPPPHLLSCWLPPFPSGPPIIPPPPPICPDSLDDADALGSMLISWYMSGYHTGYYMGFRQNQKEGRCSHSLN
UniProt Q8WWI5: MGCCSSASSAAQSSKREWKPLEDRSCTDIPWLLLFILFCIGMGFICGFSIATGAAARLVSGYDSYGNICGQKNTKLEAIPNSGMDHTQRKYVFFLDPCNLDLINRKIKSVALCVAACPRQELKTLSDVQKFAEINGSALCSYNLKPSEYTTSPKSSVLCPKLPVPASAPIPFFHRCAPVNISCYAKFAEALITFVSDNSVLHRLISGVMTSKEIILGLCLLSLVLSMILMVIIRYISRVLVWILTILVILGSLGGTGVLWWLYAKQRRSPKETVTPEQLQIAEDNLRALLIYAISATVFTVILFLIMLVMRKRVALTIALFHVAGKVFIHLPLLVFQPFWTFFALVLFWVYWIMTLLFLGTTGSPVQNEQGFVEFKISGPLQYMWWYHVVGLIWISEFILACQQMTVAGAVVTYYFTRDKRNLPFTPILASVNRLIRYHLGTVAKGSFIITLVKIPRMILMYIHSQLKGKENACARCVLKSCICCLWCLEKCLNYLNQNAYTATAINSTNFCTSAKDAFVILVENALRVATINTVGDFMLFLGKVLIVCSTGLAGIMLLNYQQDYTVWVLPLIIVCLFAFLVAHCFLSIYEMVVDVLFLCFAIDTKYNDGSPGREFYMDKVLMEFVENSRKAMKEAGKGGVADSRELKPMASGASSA

Compound in the test: Cc1cc(ccc1-c1ccccc1)C(=O)N1CCCN(CC1)C(=O)CCl [compound 10]
Description: probe-labelled cysteine peptide fold change vs DMSO (competition) (log2 fold change); higher = less target engagement (more negative = stronger competition). Particulars: THP-1, incubation time: 4 h.
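Also: competitive profiling in live THP-1 cells: cysteine peptides tagged with an iodoacetamide desthiobiotin (IA-DTB) probe, intensity after compound treatment relative to DMSO-treated cells.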

Turning to “SLX4_Q8IY92_786_FGVSELVHLCEQVPIATDSEGKPWEEK (UniProt Q8IY92)”, the “probe-labelled cysteine peptide fold change” value stood at 0.264 (10 µM) and 0.222 (50 µM).
Take “SMAD4_Q13485_363_FCLGQLSNVHR (UniProt Q13485)”: the “probe-labelled cysteine peptide fold change” value (10 µM) is 0.184 and the “probe-labelled cysteine peptide fold change” value (50 µM) came out at 0.462.
For “SLC4A1AP_Q9BWU0_125_EGPTALQDSNSGEPDIPPPQPDCGDFR (UniProt Q9BWU0)” the same measures were -0.235 and -0.383.
Consider “SMC2_O95347_326_NLACEESK (UniProt O95347)”, for which the “probe-labelled cysteine peptide fold change” value is, setting by setting: (10 µM) -0.0606; (50 µM) -0.489.
For the target “SNRNP200_O75643_516_TNVALMCMLR (UniProt O75643)”, the “probe-labelled cysteine peptide fold change” value (10 µM) came to 0.0138 and the “probe-labelled cysteine peptide fold change” value (50 µM) came to 0.196.
In the case of “SMC3_Q9UQE7_650_AFTMDCITLEGDQVSHR (UniProt Q9UQE7)”, the “probe-labelled cysteine peptide fold change” value runs as follows: (10 µM) 0.147; (50 µM) 0.286.
For the target “SMAP1_Q8IYB5_85_SVNLDQWTAEQIQCMQDMGNTK (UniProt Q8IYB5)”, the “probe-labelled cysteine peptide fold change” value is, setting by setting: (10 µM) -0.304; (50 µM) 0.3.
For the target “SNRNP200_O75643_742_DMCLEK (UniProt O75643)”, the “probe-labelled cysteine peptide fold change” value (10 µM) worked out at 0.0519 and the “probe-labelled cysteine peptide fold change” value (50 µM) is 0.0646.
For the target “SMARCC2_Q8TAQ2_80_CFLDFK (UniProt Q8TAQ2)”, the “probe-labelled cysteine peptide fold change” value by setting is: (10 µM) -0.0668; (50 µM) -0.0784.
For “SMARCAD1_Q9H4L7_462_CEDISNK (UniProt Q9H4L7)” the same measures were 0.0395 and 0.098.
For “SLITRK4_Q8IW52_661_HEGLGNPDCGSMQLQLR (UniProt Q8IW52)”, the “probe-labelled cysteine peptide fold change” value is, setting by setting: (10 µM) -0.281; (50 µM) -0.498.
With “SMN2_Q16637_98_CSAIWSEDGCIYPATIASIDFKR (UniProt Q16637)”, the “probe-labelled cysteine peptide fold change” value (10 µM) was -0.222 and the “probe-labelled cysteine peptide fold change” value (50 µM) was -0.345.
As to “SLC44A1_Q8WWI5_113_SVALCVAACPR (UniProt Q8WWI5)”, the “probe-labelled cysteine peptide fold change” value is 0.0475 (10 µM) and -0.0376 (50 µM).
As to “SNRNP200_O75643_1702_CVIMCQGSKK (UniProt O75643)”, the “probe-labelled cysteine peptide fold change” value was -0.0876 (10 µM) and -0.684 (50 µM).

The values are drawn from the supplement of paper PMC12067093, “Discovery and optimisation of a covalent ligand for TRIM25 and its application to targeted protein ubiquitination” (Chemical Science, 2025).
